Source: patent US9624280B2 (JANSSEN BIOTECH, INC., priority 2013, dated 2017)
Some of these results come from one statement about several compounds together. Not every detail of the peptide structures is certain; ends, links or a residue may be inferred. No end group written: not given here.

Chains of the proteins cited; added tags and fusions are not shown. Residues count along the entry.
UniProt Q15858, 1-1977 isoform Q15858-3 W1150R: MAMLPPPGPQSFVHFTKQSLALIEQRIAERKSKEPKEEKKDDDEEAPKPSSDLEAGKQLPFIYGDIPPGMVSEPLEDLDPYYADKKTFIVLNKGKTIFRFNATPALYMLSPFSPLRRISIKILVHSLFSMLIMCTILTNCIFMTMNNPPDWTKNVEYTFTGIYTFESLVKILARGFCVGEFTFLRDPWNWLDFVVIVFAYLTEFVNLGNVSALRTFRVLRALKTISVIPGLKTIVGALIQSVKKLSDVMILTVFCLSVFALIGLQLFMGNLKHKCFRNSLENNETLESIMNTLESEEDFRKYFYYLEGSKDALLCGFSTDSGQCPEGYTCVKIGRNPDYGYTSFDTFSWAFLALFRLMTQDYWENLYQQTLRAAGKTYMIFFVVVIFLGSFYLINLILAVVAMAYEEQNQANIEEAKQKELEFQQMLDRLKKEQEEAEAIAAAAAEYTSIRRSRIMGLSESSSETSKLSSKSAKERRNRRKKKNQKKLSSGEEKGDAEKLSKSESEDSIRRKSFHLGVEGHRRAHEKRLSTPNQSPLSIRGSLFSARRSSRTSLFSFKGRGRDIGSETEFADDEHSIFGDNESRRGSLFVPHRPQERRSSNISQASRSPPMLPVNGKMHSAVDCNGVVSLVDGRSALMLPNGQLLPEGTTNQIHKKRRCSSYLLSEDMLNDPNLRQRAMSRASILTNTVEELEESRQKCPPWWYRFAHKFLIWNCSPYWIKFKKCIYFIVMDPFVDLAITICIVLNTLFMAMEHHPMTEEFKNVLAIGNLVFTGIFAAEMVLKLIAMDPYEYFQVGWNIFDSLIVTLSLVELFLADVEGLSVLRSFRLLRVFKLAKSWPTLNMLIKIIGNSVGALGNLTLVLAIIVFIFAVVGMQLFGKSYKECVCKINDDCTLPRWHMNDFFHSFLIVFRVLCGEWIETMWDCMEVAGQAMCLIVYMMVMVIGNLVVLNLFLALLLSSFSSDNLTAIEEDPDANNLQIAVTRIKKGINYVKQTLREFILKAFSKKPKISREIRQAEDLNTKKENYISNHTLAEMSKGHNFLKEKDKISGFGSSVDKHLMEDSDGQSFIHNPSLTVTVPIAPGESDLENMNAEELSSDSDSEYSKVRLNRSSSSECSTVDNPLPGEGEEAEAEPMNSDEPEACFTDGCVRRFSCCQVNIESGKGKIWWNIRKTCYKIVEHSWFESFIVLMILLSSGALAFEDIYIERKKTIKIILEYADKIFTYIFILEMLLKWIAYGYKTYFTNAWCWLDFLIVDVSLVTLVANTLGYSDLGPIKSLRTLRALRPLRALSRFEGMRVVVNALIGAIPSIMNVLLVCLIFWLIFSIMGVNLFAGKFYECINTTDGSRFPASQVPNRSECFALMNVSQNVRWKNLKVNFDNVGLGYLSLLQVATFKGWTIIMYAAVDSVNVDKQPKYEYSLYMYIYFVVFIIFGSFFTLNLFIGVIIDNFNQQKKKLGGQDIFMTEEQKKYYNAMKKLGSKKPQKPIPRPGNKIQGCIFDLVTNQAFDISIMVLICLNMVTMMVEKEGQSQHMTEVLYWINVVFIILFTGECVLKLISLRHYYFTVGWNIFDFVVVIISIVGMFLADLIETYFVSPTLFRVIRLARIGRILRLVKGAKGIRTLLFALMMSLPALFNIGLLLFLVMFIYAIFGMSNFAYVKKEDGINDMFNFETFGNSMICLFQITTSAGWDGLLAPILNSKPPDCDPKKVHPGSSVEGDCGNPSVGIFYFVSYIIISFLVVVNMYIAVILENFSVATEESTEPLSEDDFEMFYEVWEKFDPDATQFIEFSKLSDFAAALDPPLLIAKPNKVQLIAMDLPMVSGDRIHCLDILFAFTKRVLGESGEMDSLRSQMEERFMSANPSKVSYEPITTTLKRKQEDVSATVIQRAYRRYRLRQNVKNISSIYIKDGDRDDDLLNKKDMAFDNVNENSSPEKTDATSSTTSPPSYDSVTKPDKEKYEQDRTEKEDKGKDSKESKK

Target: T1, human Nav1.7 (Homo sapiens, UniProt Q15858, W1161R)
T1 construct: expressed in transfected cells
Type: cell-based
Details: read-out: IC50 value for human Nav1.7, FLIPR Tetra veratridine-induced depolarization inhibition assay

“GPQCQKWMQTCDAERKCCEGFSCTLWCKKKLW-OH (cysteine pairing not given here) [NV1D2974]” was tested, and the IC50 was at most 30 nM.
